Results published in patent US12458612B2, “Combination therapy comprising compounds of formula (I) and GLP-1 receptor agonists” (GENFIT, priority 2019, dated 2025).
At least one structure is not confirmed: it was looked up by name or label, or the drawing left a doubt.

How the values were obtained:
[1] = tested on: TNFα secretion in LPS-activated macrophages (THP-1); test: TNFα secretion in LPS-activated THP-1 macrophages, combination matrix, HTRF (Example 4); format: cell-based, Human; details: GLP-1 receptor agonist alone; LPS-activated THP1 macrophages (FIGS. 11A-B)
Description: Human_THP-1 monocytes were seeded at a density of 25,000 cells per well in 384-well plate in RPMI1640 (Gibco, 21875) supplemented with 10% FBS, 1% Penicillin-streptomycin (Gibco, 15140122) and 25 mM Hepes (Gibco, 15630080) and differentiated into macrophages using PMA (Phorbol 12-myristate 13-acetate, Sigma, P8139) at the final concentration of 100 ng/ml for 24 hours.
A 2 component combination matrix was prepared. ELA and GLP-1 receptor agonists stocks were serially diluted in DMSO in 3-points series in a row (ELA) and a 8-points series in a column of a 96-well plate for GLP1RA. Subsequently, the 3×8 combination matrix was generated by 1:1 mixing of all single agent concentrations.
After 24 hrs with PMA, medium was removed, and replaced by serum free RPMI. […]
Synergism between compounds was determined using the Excess Over Bliss (EOB) method.
The values obtained in the TNFα HTRF assay were first transformed into percentage inhibitions over LPS control. Then, using these percentage inhibitions, EOB were calculated. Expected Bliss additivism score (E) was firstly determined by the equation: E=(A+B)−(A×B) where A and B are the percentage inhibition of elafibranor (A) and GLP-1 analogue (B) at a given dose.
The total Bliss score was calculated by addition of all EOB.

[2] = tested on: αSMA production in TGFβ-stimulated human primary hepatic stellate cells (hHSC); test: αSMA production in TGFβ-stimulated hepatic stellate cells, combination matrix, HTRF (Example 5); format: cell-based; details: 0.003 μM of liraglutide alone
[3] = tested on: NASH-B6 mice; test: Blood glucose before and after 8 weeks in NASH-B6 mice (Example 6); format: in vivo; details: ELA 3 mg/kg/day, liraglutide 0.02 mg/kg/day, 6 h fasting (FIG. 16)

For `CCCCCCCCCCCCCCCC(=O)N[C@@H](CCC(=O)NCCCC[C@H](NC(=O)[C@H](C)NC(=O)[C@H](C)NC(=O)[C@H](CCC(N)=O)NC(=O)CNC(=O)[C@H](CCC(=O)O)NC(=O)[C@H](CC(C)C)NC(=O)[C@H](Cc1ccc(O)cc1)NC(=O)[C@H](CO)NC(=O)[C@H](CO)NC(=O)[C@@H](NC(=O)[C@H](CC(=O)O)NC(=O)[C@H](CO)NC(=O)[C@@H](NC(=O)[C@H](Cc1ccccc1)NC(=O)[C@@H](NC(=O)CNC(=O)[C@H](CCC(=O)O)NC(=O)[C@H](C)NC(=O)[C@@H](N)Cc1cnc[nH]1)[C@@H](C)O)[C@@H](C)O)C(C)C)C(=O)N[C@@H](CCC(=O)O)C(=O)N[C@@H](Cc1ccccc1)C(=O)N[C@H](C(=O)N[C@@H](C)C(=O)N[C@@H](Cc1c[nH]c2ccccc12)C(=O)N[C@@H](CC(C)C)C(=O)N[C@H](C(=O)N[C@@H](CCCNC(=N)N)C(=O)NCC(=O)N[C@@H](CCCNC(=N)N)C(=O)NCC(=O)O)C(C)C)[C@@H](C)CC)C(=O)O` [liraglutide], the “maximal effect, TNFα inhibition” value [1] was 38%, the “antifibrotic activity (αSMA production)” value [2] was “does not show any antifibrotic activity” and the “reduction of glycemia (blood glucose evolution vs GAN vehicle group)” value [3] was “no effect”.
